Values quoted from earlier work, collected in patent publication US7157222B2, “Method of cryopreservation of tissues by vitrification” (Organ Recovery Systems, Inc., priority 1999, dated 2007).
Some entries share one result that the patent states for a list of compounds.

Tested on: animal articular cartilage models and human cartilage biopsies
Details: conventional cryopreservation (freezing) with the cryoprotectant; cited from earlier work

SMILES | chondrocyte viability following conventional cryopreservation
C[S+](C)[O-] [DMSO, dimethyl sulfoxide] | no more than 20%
OCC(O)CO [glycerol] | no more than 20%
